Data as given in PubChem BioAssay AID1159584 (Peter MacCallum Cancer Centre, 2016)

- Assay: 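Genes whose loss is lethal only together with E-cadherin loss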 (primary screen)
- Cells: human MCF10A breast epithelial cells, parental and CDH1-null
- Reagent: siRNA against human genes
- Read-out: 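ATP luminescence (CellTiter-Glo) viability per line relative to mean mock wells over all plates, and the ratio of CDH1-null to parental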
- Direction: CDH1-null / parental viability ratio: higher = CDH1-null cells survive relatively better than parental; CDH1-null viability vs mock: higher = more viable CDH1-null cells
- Units: CDH1-null viability vs mock in fraction of mock
The whole screen tested about 18,000 reagents; this is an unselected part. Not all columns of the deposit are shown. Reagent sequences are not shown. The record does not give: the amount of reagent, the time to read-out.

{"Gene": "PRLH", "CDH1-null / parental viability ratio": 0.78, "CDH1-null viability vs mock": 0.57}
{"Gene": "ACTL8", "CDH1-null / parental viability ratio": 0.93, "CDH1-null viability vs mock": 0.82}
{"Gene": "LBHD1", "CDH1-null / parental viability ratio": 0.81, "CDH1-null viability vs mock": 0.57}
{"Gene": "AKT2", "CDH1-null / parental viability ratio": 0.92, "CDH1-null viability vs mock": 0.74}
{"Gene": "TGIF2", "CDH1-null / parental viability ratio": 1.04, "CDH1-null viability vs mock": 0.77}
{"Gene": "DEFB126", "CDH1-null / parental viability ratio": 1.13, "CDH1-null viability vs mock": 0.52}
{"Gene": "GHDC", "CDH1-null / parental viability ratio": 1.29, "CDH1-null viability vs mock": 0.4}
{"Gene": "KALRN", "CDH1-null / parental viability ratio": 0.87, "CDH1-null viability vs mock": 0.85}
{"Gene": "CABS1", "CDH1-null / parental viability ratio": 0.84, "CDH1-null viability vs mock": 0.59}
{"Gene": "CFP", "CDH1-null / parental viability ratio": 1.08, "CDH1-null viability vs mock": 0.64}
{"Gene": "EMC4", "CDH1-null / parental viability ratio": 0.86, "CDH1-null viability vs mock": 0.66}
{"Gene": "S100A11", "CDH1-null / parental viability ratio": 0.98, "CDH1-null viability vs mock": 1.03}
{"Gene": "GK2", "CDH1-null / parental viability ratio": 0.96, "CDH1-null viability vs mock": 0.89}
{"Gene": "SCGB1D2", "CDH1-null / parental viability ratio": 1.19, "CDH1-null viability vs mock": 1}
{"Gene": "OLR1", "CDH1-null / parental viability ratio": 1.03, "CDH1-null viability vs mock": 0.8}
{"Gene": "TMEM242", "CDH1-null / parental viability ratio": 1.08, "CDH1-null viability vs mock": 0.91}
{"Gene": "CAPN7", "CDH1-null / parental viability ratio": 1.24, "CDH1-null viability vs mock": 0.92}
{"Gene": "CFAP251", "CDH1-null / parental viability ratio": 0.96, "CDH1-null viability vs mock": 0.98}
{"Gene": "ZNF160", "CDH1-null / parental viability ratio": 1.03, "CDH1-null viability vs mock": 0.99}
{"Gene": "ZNF138", "CDH1-null / parental viability ratio": 0.95, "CDH1-null viability vs mock": 0.52}
{"Gene": "RGS9", "CDH1-null / parental viability ratio": 0.91, "CDH1-null viability vs mock": 0.89}
{"Gene": "HSFY1", "CDH1-null / parental viability ratio": 0.71, "CDH1-null viability vs mock": 0.61}
{"Gene": "CLU", "CDH1-null / parental viability ratio": 1.3, "CDH1-null viability vs mock": 0.78}
{"Gene": "SMG1", "CDH1-null / parental viability ratio": 0.74, "CDH1-null viability vs mock": 0.68}
{"Gene": "CCNYL1", "CDH1-null / parental viability ratio": 0.87, "CDH1-null viability vs mock": 1}
{"Gene": "CELA3B", "CDH1-null / parental viability ratio": 0.74, "CDH1-null viability vs mock": 0.56}
{"Gene": "LNPEP", "CDH1-null / parental viability ratio": 1.16, "CDH1-null viability vs mock": 0.74}
{"Gene": "NOP14", "CDH1-null / parental viability ratio": 1.04, "CDH1-null viability vs mock": 0.58}
{"Gene": "RBMX", "CDH1-null / parental viability ratio": 0.86, "CDH1-null viability vs mock": 0.65}
{"Gene": "FAM3A", "CDH1-null / parental viability ratio": 1.09, "CDH1-null viability vs mock": 0.74}
{"Gene": "DGAT2L6", "CDH1-null / parental viability ratio": 1.02, "CDH1-null viability vs mock": 0.63}
{"Gene": "LECT2", "CDH1-null / parental viability ratio": 1.19, "CDH1-null viability vs mock": 0.96}
{"Gene": "DOK7", "CDH1-null / parental viability ratio": 1.18, "CDH1-null viability vs mock": 0.9}
{"Gene": "YME1L1", "CDH1-null / parental viability ratio": 1.1, "CDH1-null viability vs mock": 0.9}
{"Gene": "GABRR2", "CDH1-null / parental viability ratio": 1.22, "CDH1-null viability vs mock": 1.12}

4 entries already listed, sorted by “CDH1-null / parental viability ratio”, low to high:
{"Gene": "DGAT2L6", "CDH1-null / parental viability ratio": 1.02, "CDH1-null viability vs mock": 0.63}
{"Gene": "YME1L1", "CDH1-null / parental viability ratio": 1.1, "CDH1-null viability vs mock": 0.9}
{"Gene": "DOK7", "CDH1-null / parental viability ratio": 1.18, "CDH1-null viability vs mock": 0.9}
{"Gene": "LECT2", "CDH1-null / parental viability ratio": 1.19, "CDH1-null viability vs mock": 0.96}
